According to paper PMC10245490:
Results are given in words; binding and its absence hold for the method and conditions named. In cells and extracts the contact can be indirect. Some results given as binding are weak or reduced against the parent protein; the word gives no strength.

The chains behind the UniProt entries cited, without tags or fusion partners.
UniProt P21796: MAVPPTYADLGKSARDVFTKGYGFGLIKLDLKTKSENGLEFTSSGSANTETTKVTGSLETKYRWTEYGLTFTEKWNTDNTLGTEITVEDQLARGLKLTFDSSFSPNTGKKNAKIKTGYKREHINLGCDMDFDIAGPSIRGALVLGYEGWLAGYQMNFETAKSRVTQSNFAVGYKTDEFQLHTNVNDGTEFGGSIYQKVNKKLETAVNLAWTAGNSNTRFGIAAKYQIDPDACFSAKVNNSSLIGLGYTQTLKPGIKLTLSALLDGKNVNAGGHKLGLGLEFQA
UniProt P63172: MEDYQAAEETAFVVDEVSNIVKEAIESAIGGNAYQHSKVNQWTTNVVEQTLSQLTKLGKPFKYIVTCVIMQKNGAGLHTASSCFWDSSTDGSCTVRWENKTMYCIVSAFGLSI
UniProt O60260: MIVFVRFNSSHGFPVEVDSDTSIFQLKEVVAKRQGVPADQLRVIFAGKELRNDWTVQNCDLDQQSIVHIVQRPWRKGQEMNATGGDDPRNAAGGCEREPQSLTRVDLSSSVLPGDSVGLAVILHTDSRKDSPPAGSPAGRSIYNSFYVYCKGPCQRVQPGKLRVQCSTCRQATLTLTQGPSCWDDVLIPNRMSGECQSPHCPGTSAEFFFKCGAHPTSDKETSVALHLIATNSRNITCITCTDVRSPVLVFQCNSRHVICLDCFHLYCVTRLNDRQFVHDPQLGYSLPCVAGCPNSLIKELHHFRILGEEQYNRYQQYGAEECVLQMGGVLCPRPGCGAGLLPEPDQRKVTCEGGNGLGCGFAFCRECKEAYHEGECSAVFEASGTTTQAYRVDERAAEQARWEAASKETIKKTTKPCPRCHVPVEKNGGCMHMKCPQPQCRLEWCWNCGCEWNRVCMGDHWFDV

How the values were obtained:
[1] = target: voltage-dependent anion channel 1 (VDAC1) (human (endogenous in MCF-7 and MDA-MB-468)) (UniProt P21796); test: co-IP; endogenous proteins in MCF-7 and MDA-MB-468 breast cancer cells; which protein was precipitated is not given
[2] = target: voltage-dependent anion channel 1 (VDAC1) (human (endogenous in MCF-7 and MDA-MB-468)) (UniProt P21796); test: co-IP; MCF-7 and MDA-MB-468 breast cancer cells, also with stable DYNLT1 shRNA knock-down or control shRNA; which protein was precipitated is not given

binding [1] | binding [2] | Substance
binds |  | DYNLT1 (Dynein Light Chain Tctex-Type 1) (from UniProt P63172 1-113)
 | binds | E3 ligase Parkin (from UniProt O60260 1-465) (enzyme)
